# Laboratory results taken from PubChem BioAssay AID1347075 (National Center for Advancing Translational Sciences (NCATS), 2019).
# Among all 400,000 compounds or so, about 5,500 (1.4%) were called active. Inconclusive means that the source gave no clear call. Such entries were picked first, then a sample of the others. Calls come from the whole dose curve; as a rule, active = well fitted cell-killing curve with a large enough effect; inconclusive = small, poorly fitted or top-dose-only effect, or effect the other way; inactive = flat fitted curve, though single readings scatter. Where the call is inconclusive, the potency comes from a doubtful curve fit.
# Assay: qHTS assay for MDR1-selective chemotherapeutics: Primary screen using the parental adenocarcinoma cell KB-3-1; note: nearly all actives have a fitted effect of over 60% in size
# Conditions: KB-3-1 viability, CellTiter-Glo ATP luminescence, 72 h; activity change, negative = cytotoxic: at 46.1 µM (top of the series)
# Summary of the method: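 Cytotoxicity measured as CellTiter-Glo luminescence after 72 h at 37 C. Compound titrations were pinned onto drug-naive KB-3-1 parental adenocarcinoma cells grown in DMEM with 10% FBS, and normalized data fitted to concentration-response curves.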
# % is set by controls: 0 for no effect and ±100 for the full control effect; potency is the fitted concentration of half-maximal effect.
Structure (SMILES),Potency,"activity change, negative = cytotoxic"
N#CC(c1nc2ccccc2nc1OCCO)S(=O)(=O)c1ccccc1 (stereo not drawn),"inconclusive: 14.6 µM [cytotoxic, single point]",
Cc1cc(C(=O)N/N=C/c2ccc(-c3ccccc3Cl)o2)n[nH]1,"inconclusive: 32.6 µM [cytotoxic, single point]",
Cc1cc(Cl)ccc1OCC(=O)N1CCC(c2nc3ccccc3s2)CC1,"inconclusive: 32.6 µM [cytotoxic, single point]",
CCCCCOc1ccc(CSC(=N)N)cc1[N+](=O)[O-],"inconclusive: 29.1 µM [cytotoxic, single point]",
Brc1cccc(CN2CCN(c3ncccn3)CC2)c1,"inconclusive: 29.1 µM [rising, single point]",
C=CCNC(=O)c1onc(CSc2ccccc2CC)c1C(=O)O,,inactive: 0%
CCOC(=O)C1(Cc2cccc(OC)c2)CCCN(Cc2cnn(C)c2)C1 (stereo not drawn),,inactive: -2.06%
Cc1c(Cl)ccc2c1NC(=O)[C@]21N[C@@H](Cc2ccccc2)[C@H]2C(=O)N(c3ccc(F)cc3)C(=O)[C@H]21,"inconclusive: 29.1 µM [cytotoxic, single point]",
COc1ccc(C(=O)/C=C/c2cn(CC(O)CN3CCc4ccccc43)c3ccccc23)cc1 (stereo not drawn),,inactive: -7.02%
Cc1cc(Cl)cc(Br)c1OCCCN1C(=O)NC(C)(C)C1=O,"inconclusive: 23.1 µM [cytotoxic, partial curve]",
O=C(Nc1ccccc1F)C1CCCN(S(=O)(=O)c2ccc(-n3cnnn3)cc2)C1 (stereo not drawn),"inconclusive: 29.1 µM [rising, single point]",
CC1CN(C(=O)c2ccccc2Oc2ccccc2)CC(C)O1 (stereo not drawn),active: 20.6 µM,
Fc1ccc(-n2ncc3c(Nc4cccc(Cl)c4)ncnc32)cc1,,inactive: -4.18%
O=C(c1cnn(-c2ccc(F)cc2)c1-n1cccc1)N1CCN(c2ccc(Cl)cc2)CC1,"inconclusive: 25.9 µM [cytotoxic, single point]",
COc1ccc(C(=O)COC(=O)CN2CC(=O)Oc3ccccc32)cc1Br,"inconclusive: 8.2 µM [cytotoxic, partial curve]",
COc1ccc2c(c1)Sc1ccccc1N2,"inconclusive: 23.1 µM [cytotoxic, partial curve, poor fit]",
O=S(=O)(c1ccccc1)c1nc(-c2ccc(F)cc2)oc1NCC1CCCO1 (stereo not drawn),,inactive: 0.936%
CC1=CCC(Cc2nc3ccccc3o2)C1(C)C (stereo not drawn),,inactive: -1.72%
COc1ccc(Nc2cc(C)nc3ncnn23)cc1,,inactive: 18.1%
COc1cc(OC)cc(-c2nc3nc(C)c(CCC(=O)Nc4ccc(C)cc4C)c(C)n3n2)c1,,inactive: 0%
COc1cc(C(=O)N2CCN(c3ncnc4sc(C)c(C)c34)CC2)cc(OC)c1OC,"inconclusive: 9.2 µM [cytotoxic, partial curve]",
CN(Cc1cccc2cnccc12)C(=O)c1cc(COc2ccc(F)cc2Cl)on1,"inconclusive: 29.1 µM [cytotoxic, single point]",
COc1cccc(NC(=O)Cn2cc(S(=O)(=O)Cc3ccccc3F)c3ccccc32)c1,"inconclusive: 29.1 µM [cytotoxic, single point]",

# As entered above:
# Potency with Cc1cc(Cl)ccc1OCC(=O)N1CCC(c2nc3ccccc3s2)CC1 is entered as inconclusive: 32.6 µM [cytotoxic, single point]
# activity change, negative = cytotoxic with Fc1ccc(-n2ncc3c(Nc4cccc(Cl)c4)ncnc32)cc1 is entered as inactive: -4.18%
# activity change, negative = cytotoxic with COc1cc(OC)cc(-c2nc3nc(C)c(CCC(=O)Nc4ccc(C)cc4C)c(C)n3n2)c1 is entered as inactive: 0%

# Later entries

Structure (SMILES),Potency,"activity change, negative = cytotoxic"
CCc1ccc(C(=O)C(C)OC(=O)Cc2n[nH]c(=O)c3ccccc23)cc1 (stereo not drawn),active: 9.2 µM,
S=c1[nH]nc(-c2cc(-c3ccccc3)n[nH]2)n1/N=C/C(Br)=C/c1ccccc1,active: 14.6 µM,
COC(=O)CN1C(=S)N(c2ccc(F)cc2)C(=O)C1CC(=O)Nc1ccc(F)cc1 (stereo not drawn),"inconclusive: 0.291 µM [rising, full curve, poor fit]",
O=C(c1cc(-c2ccncc2)nc2ccccc12)N1CCN(Cc2ccccc2)CC1,,inactive: -2.85%
CC(C)c1cc(Cn2c3ccccc3c(=O)n2C(C)Cn2cc(COc3ccccc3)nn2)on1 (stereo not drawn),"inconclusive: 25.9 µM [rising, partial curve, poor fit]",
C#CCOCCOCCOCCNc1nc(N2CCN(C(=O)[C@H](CC(N)=O)n3cc(C(N)[C@H](C)CC)nn3)CC2)nc(N2CCN(C(=O)[C@H](CC(N)=O)n3cc(C(N)[C@@H](C)CC)nn3)CC2)n1 (stereo partly drawn),"inconclusive: 18.4 µM [rising, partial curve, poor fit]",
CC(C)(c1ccccc1)c1ccc(OCCN)cc1,"inconclusive: 32.6 µM [cytotoxic, single point]",
Oc1ccc(C[C@H]2CN([C@@H](Cc3cccc(O)c3)CN3CCC[C@@H]3CN3C(=S)NC[C@@H]3Cc3ccccc3)C(=S)N2CC2CCCCC2)cc1,"inconclusive: 29.1 µM [cytotoxic, single point]",
Cc1sc2ncnc(NCc3cccs3)c2c1C,"inconclusive: 2.59 µM [cytotoxic, full curve, poor fit]",
COc1ccc2c(c1)CC/C(=C\c1ccc(OC)c(Cn3cccn3)c1)C2=O,"inconclusive: 23.1 µM [cytotoxic, single point]",
Cc1cccc(CSc2cccc3cccnc23)c1,"inconclusive: 29.1 µM [cytotoxic, single point]",
COc1cc(Cl)c(S(=O)(=O)NCCCn2ccnc2)cc1Cl,,inconclusive: -36.8% [cytotoxic]
O=C(NCc1ccco1)c1ccc2c(c1)N(Cc1ccc(Cl)cc1)C(=O)c1ccccc1S2(=O)=O,,inactive: -4.41%
Cc1noc2ncnc(Sc3ccc(Br)cc3)c12,"inconclusive: 18.4 µM [cytotoxic, single point]",
CCOc1ccc(NC(=NCc2ccc3c(c2)OCO3)SC2CC(=O)N(c3ccc(OCC)cc3)C2=O)cc1 (stereo not drawn),,inactive: -13.5%
CCN(CC(=O)Nc1cc(Cl)ccc1C)C(=O)CSCc1c(C)noc1C,,inactive: -10.3%
Cc1nc2sc(-c3ccccc3)cc2c(=O)[nH]1,"inconclusive: 32.6 µM [rising, single point]",
CCOC(=O)CC(NC(=O)CCc1c(C)nc2ncnn2c1C)c1ccc(C)cc1 (stereo not drawn),"inconclusive: 3.66 µM [rising, partial curve, poor fit]",
CCN1CCN(c2cc(C)c3cc(NC(=S)NCCCOC)ccc3n2)CC1,,inactive: 0.783%
C#CCN1c2ccccc2Sc2cccnc21,"inconclusive: 29.1 µM [cytotoxic, single point]",
Clc1ccc(-c2csc(N/N=C/c3cccnc3)n2)c(Cl)c1,"inconclusive: 14.6 µM [cytotoxic, partial curve, poor fit]",
COc1ccc(/C=C2\SC(=NCc3ccccc3)NC2=O)cc1,"inconclusive: 20.6 µM [rising, partial curve, poor fit]",
CCOc1cccc(/C=C2/NC(=O)N(CC(=O)Nc3cccc(C)c3)C2=O)c1O,"inconclusive: 4.11 µM [rising, full curve, poor fit]",

Structure (SMILES),Potency,"activity change, negative = cytotoxic"
CN(c1cccc(NC(=O)c2ccccc2N(Cc2ccccc2)S(C)(=O)=O)c1)S(C)(=O)=O,,inactive: 3.43%
O=C(c1ccc(=O)n(Cc2ccccc2)n1)N1CCN(C/C=C/c2ccccc2)CC1,"inconclusive: 25.9 µM [cytotoxic, single point]",
CCCCOc1ncnc2c1[nH]c1ccccc12,"inconclusive: 14.6 µM [cytotoxic, partial curve]",
O=C(CSc1nnc(CNC(=O)C23CC4CC(CC(C4)C2)C3)n1-c1ccccc1)Nc1ccc(F)cc1,,inactive: -1.59%
C[C@H](OC(=O)c1[nH]cnc1C(=O)N1CCN(C(=O)OC(C)(C)C)CC1)c1ccccc1,,inactive: 0%
COCCCNC(=O)c1ccc2c3c(onc13)-c1ccccc1C2=O,"inconclusive: 29.1 µM [cytotoxic, single point]",
Cc1ccc(C)c(Nc2nnc(-c3ccc(C)c(S(=O)(=O)NCC4CCCO4)c3)c3ccccc23)c1 (stereo not drawn),"inconclusive: 29.1 µM [cytotoxic, single point]",
O=c1[nH]c(/C=C/c2ccccc2F)nc2ccccc12,active: 4.61 µM,
CCOc1ccc(N2C(=O)c3[nH]nc(-c4ccc(OC)cc4)c3C2c2cccs2)cc1 (stereo not drawn),"inconclusive: 29.1 µM [cytotoxic, single point]",
COC(=O)COC(=O)c1ccccc1NC(=O)c1ccccc1,"inconclusive: 8.2 µM [rising, partial curve, poor fit]",
COc1ccc(CN(C)C(=O)C(Cc2ccccc2)NC(=O)c2ccccc2)c(OC)c1OC (stereo not drawn),,inconclusive: -13.2%
N#C/C(=N\Nc1cccc(C(F)(F)F)c1)C(=O)c1ccsc1,active: 16.4 µM,
Cc1cccn2c(=O)c(/C=C(\C#N)C(=O)NC3CCS(=O)(=O)C3)c(N3CC(C)OC(C)C3)nc12 (stereo not drawn),,inconclusive: 34.3%
Cc1ccc(N(CN2CCCC2=O)C(=O)c2ccc(OC(C)C)cc2)cc1,"inconclusive: 16.4 µM [rising, partial curve]",
O=c1cc(NCCCO)c2ccccc2o1,,inactive: 15.7%
COc1ccc(N2CCN(C(=O)c3cccc(NC(=O)c4ccco4)c3)CC2)cc1,,inactive: -0.757%
O=C(c1cccc(S(=O)(=O)N2CCCc3ccccc32)c1)N1CCN(c2ccccc2)CC1,"inconclusive: 29.1 µM [cytotoxic, single point]",
C[C@@H]1NC(=O)N[C@@H]1CCCCCC(=O)O,,inconclusive: 0%
CC(=O)Nc1nc(-c2ccc(Cl)cc2)nc(C)c1C(C)=O,"inconclusive: 29.1 µM [cytotoxic, partial curve, poor fit]",
O=C(C(=C1NCCN1)n1cncn1)c1ccccc1,"inconclusive: 2.91 µM [rising, partial curve, poor fit]",
CCOC(=O)c1nc(Nc2ccc(C(=O)OC(C)C)cc2)c2ccccc2n1,,inactive: 3.96%
Cc1nc(SCc2nc3cc(Cl)c(F)cc3[nH]2)c2oc3ccccc3c2n1,"inconclusive: 23.1 µM [cytotoxic, single point]",
